According to patent US8084210B2, “Methods for the assessment of drug response” (Theranostics Laboratory, priority 2008, dated 2011):
For at least one compound, name, drawing or mass did not settle the structure.

Protein sequences, listed by entry. Tags and fused reporters are not part of them. Lines headed by an entry give the natural chain unless they say otherwise; changes in a name come on top.
UniProt Q9H244: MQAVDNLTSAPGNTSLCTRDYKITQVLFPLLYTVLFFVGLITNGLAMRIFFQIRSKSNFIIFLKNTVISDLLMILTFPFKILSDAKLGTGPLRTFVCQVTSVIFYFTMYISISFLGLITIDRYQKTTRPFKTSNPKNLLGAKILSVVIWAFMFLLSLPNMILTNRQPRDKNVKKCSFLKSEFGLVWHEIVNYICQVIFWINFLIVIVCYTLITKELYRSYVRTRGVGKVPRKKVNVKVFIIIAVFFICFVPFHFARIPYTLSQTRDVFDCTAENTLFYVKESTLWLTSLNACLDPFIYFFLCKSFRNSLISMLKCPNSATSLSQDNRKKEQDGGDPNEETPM

Target: T1, P2Y12 receptor (Homo sapiens, UniProt Q9H244)
T1 construct: light transmittance through whole blood, to measure platelet agglutination; from tissue; host or cells: Platelets in citrated whole blood (arterial or venous) of patients
Assay: Platelet function by VerifyNow P2Y12 analyser in elective PCI patients given clopidogrel (PRINC trial)
Format: in vivo
Settings: 20 subjects on omeprazole, clopidogrel treated
From the text: The study protocol was approved by the Northern Regional Ethics Committee of New Zealand. Eligible patients were defined as all-corners for elective percutaneous coronary intervention who were on aspirin and naëve to clopidogrel. […] Patients were randomised into equal groups using a computerised random number generator. Block randomisation was not used, explaining the unbalanced grouping to treatment allocations. Clopidogrel was broken in half and repackaged into gelatine capsules packed with lactose powder to match placebo. Investigators and subjects were blinded to treatment allocation. A target of 120 patients was predefined for completion of the study. […] At discharge patients were randomized to receive either 75 mg or 150 mg once daily for one week and regular 75 mg once daily dosing thereafter. Adherence to the treatment regimen was tested by a phone interview and pill count. Arterial blood was sampled through 6Fr femoral sheaths and transferred immediately to 3.2% citrate 2 ml vacutainer tubes (Cat. #454321 Greiner Vacuette®, Greiner, Kremsmuenster, Austria), using a 20 G needle and syringe. After sheath removal blood was drawn by venepucture directly into vacutainer tubes. […] The output of the device is measured as the proprietary platelet response unit (PRU). […] The effect of different dosages on response in genotype groups was assessed at four hours.

COc1ccc2[nH]c([S+]([O-])Cc3ncc(C)c(OC)c3C)nc2c1 (stereo not shown) [omeprazole]
Influence of concomitant omeprazole on platelet function: no influence on platelet function was found
